According to patent US7622447B2, “Use of glutathione synthesis stimulating compounds in reducing insulin resistance” (DiaMedica Inc., priority 2002, dated 2009):
At least one compound was matched to its structure with a doubt left.

Tested on: liver
Assay: Reversal of insulin resistance induced by surgical denervation of the liver
Format: in vivo

CC(=O)OCC[N+](C)(C)C [Acetylcholine]
reversal of insulin resistance, intraportal infusion (acetylcholine 2.5 μg/kg/min into the portal vein): complete reversal of the insulin resistance
reversal of insulin resistance, intravenous administration (same dose of acetylcholine intravenously): no reversal
